Measured values reported in article PMC212687.
Construct, isoform or probe ends are uncertain for at least one entry. The comparison behind a weaker result is the experiment's own reference, which may not be listed here. At least one verdict was read from the data and is not stated in words by the source.

Tested on: RAG1 + RAG2 + HMG (HMG-1/2)
Assay: EMSA
Conditions: Standard gel shift, three experiments, recombinant protein, label: 5' end label, top strand

GATCTGGCCTGGTCTGCACAACCATACAGCCCTTAACAAAAACCTGCACTCGAGCGGAG (double strand) [Sc-N]
binding result (spacer boosts binding with N, Sc-N > H-N): binds

GATCTGGCCTGGTCTGCACAACCATACAGCCCTTAAGAGAAACCTGCACTCGAGCGGAG (double strand) [Sc (Jβ2.6 with consensus spacer)]
binding result (no change vs Jβ2.6 (weak)): binds more weakly

GATCTGGCCTGGTCTGCACAACCCAGATCTAGGAGACAAAAACCTGCACTCGAGCGGAG (double strand) [Sac-N]
binding result (lower than Sc-N, similar to N): binds more weakly

GATCTGGCCTGGTCTGCACAGTGATACAGCCCTTAACAAAAACCTGCACTCGAGCGGAG (double strand) [H-Sc-N (consensus 12-RSS)]
binding result (highest binding of all RSSs): binds

GATCTGGCCTGGTCTGCACAGTGCAGATCTAGGAGAGAGAAACCTGCACTCGAGCGGAG (double strand) [H-Sac (anticonsensus spacer)]
binding result (Sac level very similar to RSS with Jβ2.6 spacer (H)): binds more weakly

GATCTGGCCTGGTCTGCACAGTGCTGTGACTCCCAACAAAAACCTGCACTCGAGCGGAG (double strand) [H-N]
binding result (lower than Sc-N): binds more weakly

GATCTGGCCTGGTCTGCACAGTGCTGTGACTCCCAAGAGAAACCTGCACTCGAGCGGAG (double strand) [H (Jβ2.6 with consensus heptamer)]
binding result (consensus heptamer reduces binding vs Jβ2.6): binds more weakly
